The assay has as its target T1, POT1-FLAG (UniProt Q9NUX5).
T1 sequence: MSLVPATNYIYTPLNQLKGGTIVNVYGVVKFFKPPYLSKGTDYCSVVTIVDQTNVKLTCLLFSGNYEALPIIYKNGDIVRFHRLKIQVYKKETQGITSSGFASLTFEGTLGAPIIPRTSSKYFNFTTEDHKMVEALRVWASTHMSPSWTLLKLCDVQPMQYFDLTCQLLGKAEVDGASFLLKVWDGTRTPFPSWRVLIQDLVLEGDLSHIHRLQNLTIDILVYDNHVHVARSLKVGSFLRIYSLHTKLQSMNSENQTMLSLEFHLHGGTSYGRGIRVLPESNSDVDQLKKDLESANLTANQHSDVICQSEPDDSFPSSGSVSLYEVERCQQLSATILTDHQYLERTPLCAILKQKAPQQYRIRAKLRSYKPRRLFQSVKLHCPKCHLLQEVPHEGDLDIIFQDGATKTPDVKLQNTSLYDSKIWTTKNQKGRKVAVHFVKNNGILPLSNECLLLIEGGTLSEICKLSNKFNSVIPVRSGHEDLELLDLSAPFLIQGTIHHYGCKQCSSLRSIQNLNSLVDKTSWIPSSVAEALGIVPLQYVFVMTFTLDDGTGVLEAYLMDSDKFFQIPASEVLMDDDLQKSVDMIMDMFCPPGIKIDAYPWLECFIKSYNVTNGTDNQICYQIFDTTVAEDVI
Briefly: co-IP; 293FT cells co-transfected with POT1-FLAG and Artemis-GFP, X-Ray 6 Gy on day 1 post transfection, harvested at different time points; lysates sonicated, pre-cleared, immunoprecipitated with an antibody against FLAG overnight at 4°C, protein A/G, Western blot.

Chains of the proteins cited; added tags and fusions are not shown.
UniProt Q96SD1: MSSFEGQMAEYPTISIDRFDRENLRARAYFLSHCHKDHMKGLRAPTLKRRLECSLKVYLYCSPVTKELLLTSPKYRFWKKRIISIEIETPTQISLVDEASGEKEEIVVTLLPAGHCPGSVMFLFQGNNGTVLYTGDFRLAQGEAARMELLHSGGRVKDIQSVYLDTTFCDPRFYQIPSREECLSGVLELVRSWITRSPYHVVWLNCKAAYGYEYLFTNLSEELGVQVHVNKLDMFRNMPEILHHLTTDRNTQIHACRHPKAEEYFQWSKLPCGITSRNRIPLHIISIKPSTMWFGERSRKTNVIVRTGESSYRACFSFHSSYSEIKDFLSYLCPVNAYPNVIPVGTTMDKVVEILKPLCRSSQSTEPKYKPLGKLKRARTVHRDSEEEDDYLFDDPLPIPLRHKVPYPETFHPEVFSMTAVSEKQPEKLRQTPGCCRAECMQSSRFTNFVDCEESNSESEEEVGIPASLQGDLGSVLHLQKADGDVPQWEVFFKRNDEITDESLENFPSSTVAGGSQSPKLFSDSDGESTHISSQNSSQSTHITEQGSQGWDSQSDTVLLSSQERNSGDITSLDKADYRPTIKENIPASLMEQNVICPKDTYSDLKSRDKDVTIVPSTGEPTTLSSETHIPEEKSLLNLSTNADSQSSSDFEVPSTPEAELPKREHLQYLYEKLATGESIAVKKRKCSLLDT

No constants are given. Whether binding was seen depends on the method and setting. In cells and extracts the contact can be indirect. Some entries that bind do so weakly or less than the wild type. Sequences can lack the tags named with a protein.

In the case of Artemis-GFP (from UniProt Q96SD1 1-692), the binding result is “binds”.

For the origin of these results see paper PMC5764391.
